Data from paper PMC5316989.
No constants are given. Whether binding was seen depends on the method and setting. Sequences can lack the tags named with a protein.

Target: T1, TMEPAI cytoplasmic domain (aa63-287) fused to the GAL4 DNA-binding domain (UniProt Q969W9)
T1 sequence: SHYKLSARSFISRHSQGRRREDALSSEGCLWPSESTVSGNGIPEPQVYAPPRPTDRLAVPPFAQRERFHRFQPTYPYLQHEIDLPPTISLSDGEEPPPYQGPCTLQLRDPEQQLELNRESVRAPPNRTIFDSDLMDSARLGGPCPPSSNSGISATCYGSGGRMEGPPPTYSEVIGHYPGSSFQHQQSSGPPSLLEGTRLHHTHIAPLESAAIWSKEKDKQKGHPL
Test: two-hybrid; TMEPAI versions as GAL4 DNA-binding domain fusions, partners as GAL4 activation domain fusions; yeast patched on DDO, QDO and QDO/X/A plates, growth on QDO and QDO/X/A means interaction

- binding: no binding
Substance: Human Arp1 fused to the GAL4 activation domain
